Results on one compound are retold here after PMC9848270, “Synthesis and biological assessment of indole derivatives containing penta-heterocycles scaffold as novel anticancer agents towards A549 and K562 cells” (Journal of Enzyme Inhibition and Medicinal Chemistry, 2023).

For this data set, the system named is human non-small cell lung cancer cells (A549). The data set can be described thus: MTT antiproliferative assay, A549. In kind it is cell-based. Particulars: selectivity index, ratio CC50 (HEK293)/IC50 (A549). The protocol:
A549, PC-3, HepG2 and K562 cells were purchased from the Kunming cell bank of the Chinese academy of sciences. All cell lines were cultured in DMEM or RPMI 1640 complete medium. Logarithmic growth cells were cultured in 96-well plates at a concentration of 10^4 cells per well and pre-cultured for 24 h before adding test compounds. The MTT test with 5-Fluorouracil and Gefitinib as reference compounds were used to evaluate antiproliferative activity of target compounds in four human cancer line cells. For the estimation of the inhibition concentration (IC50), the Graph Pad Prism (GraphPad Software, San Diego, CA) was used.
Background: Formazan colour is commonly taken as a measure of viable cells.

Structures are written as SMILES.

Consider `Nn1c(SCC(=O)Nc2cc(-c3c[nH]c4ccccc34)n[nH]2)nnc1-c1cccnc1` [Compound 11h, N-(3-(1H-indol-3-yl)-1H-pyrazol-5-yl)-2-((4-amino-5-(pyridine-3-yl)-4H-1,2,4-triazol-3-yl)thio)acetamide], for which the “SI (A549)” value amounted to 1.56.
